Results published in PubChem BioAssay AID445 (National Center for Advancing Translational Sciences (NCATS), 2006).
The other results are listed elsewhere or left out. Further columns of the screen follow, without active or inactive calls. Most of these compounds were active or inconclusive in the main read-out, so they are no random draw. Potencies come from curve fits of mixed quality, noted in brackets.

Assay: IkB Signaling
Details: ABC-DLBCL IkBa-CBG/CBR dual luciferase ratio (green luciferase fused to IkBa over red control in OCI-Ly3 lymphoma cells), 4 h
Summary of the method: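 Curves were fitted separately to fusion (green), unfused (red) and ratio luminescence, then classed by r2, magnitude and activity. Cells: OCI-Ly3, 4 h compound plus doxycycline at 37C; 10 uM MG-132 defined full response.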

[1] = measured here: control luc red channel unless noted

Q: For `CCN(C(=O)Cn1ncc2c1-c1cc(C)ccc1OC2)c1cc(Cl)ccc1OC`, which AC50 [1] is on record?
A: Its AC50 is 25.1 µM [falling, single point].

Q: For `CCc1ccccc1NC(=O)CSc1ncc2c(n1)-c1ccccc1N(Cc1ccc(C)cc1)S2(=O)=O`, which AC50 [1] is on record?
A: The AC50 was 7.94 µM [falling, partial curve].

Q: For `COc1ccc2c(c1)CCc1c(C(=O)NCc3cccnc3)noc1-2`, which AC50 [1] is on record?
A: Its AC50 is 2.51 µM [falling, partial curve].

Q: With `COc1ccccc1-c1cc(C(=O)NCc2ccco2)no1` as the compound, how does the AC50 [1] read?
A: Its AC50 is 1.26 µM [falling, full curve].

Q: With `COc1ccc(-n2ncc(C(=O)N3CCN(c4ccccn4)CC3)c2C2CCN(C(=O)OC(C)(C)C)CC2)cc1` as the compound, how does the AC50 [1] read?
A: Its AC50 is 31.6 µM [falling, single point].

Q: Which AC50 [1] does the source give for `CC(Sc1oc(-c2ccco2)nc1S(=O)(=O)c1ccc(Br)cc1)c1ccccc1` (configuration not stated) here?
A: The AC50 was 3.98 µM [falling, full curve].

Q: With `CCCCNc1nc(Oc2ccc(=O)n(-c3ccccc3)n2)nc(N(C)C)n1` as the compound, how does the AC50 [1] read?
A: Its AC50 is 7.94 µM [falling, single point].

Q: Which AC50 [1] does the source give for `CC1(N2CCOCC2)CC2(O)C(=[N+]1[O-])CCc1c2no[n+]1[O-]` (configuration not stated) here?
A: Its AC50 is 7.94 µM [rising, partial curve] [measured here: IkB-luc green channel].

Q: With `CCC(C)NC(=O)c1ccc2c(c1)N(Cc1cccc(Cl)c1)C(=O)c1ccccc1S2=O` (configuration not stated) as the compound, how does the AC50 [1] read?
A: Its AC50 is 3.16 µM [falling, partial curve].

Q: Which AC50 [1] does the source give for `COc1ccc(N2CCN(c3nc(-c4ccccc4F)nc4ccccc34)CC2)cc1` here?
A: Its AC50 is 12.6 µM [falling, partial curve].

Q: With `O=C(CN(c1cccc(Br)c1)S(=O)(=O)c1ccccc1)N1CCc2ccccc2C1` as the compound, how does the AC50 [1] read?
A: The AC50 was 20 µM [falling, single point].

Q: Which AC50 [1] does the source give for `CCOc1ccccc1NC(=O)C(NS(=O)(=O)c1cccc2nsnc12)c1ccccc1` (configuration not stated) here?
A: The AC50 was 39.8 µM [falling, single point].

Q: Which AC50 [1] does the source give for `Cc1nnc(N2CCN(c3ccccc3F)CC2)c2c1nnn2Cc1ccc(F)cc1` here?
A: The AC50 was 20 µM [falling, partial curve].

Q: For `CCOC(=O)Cn1c(=O)cc(-c2ccccc2)c2c(C)nn(C)c21`, which AC50 [1] is on record?
A: Its AC50 is 0.251 µM [falling, full curve, poor fit].

Q: For `O=C(c1cccc2c1-c1ccccc1/C2=N/O)N1CCCCC1`, which AC50 [1] is on record?
A: Its AC50 is 10 µM [falling, partial curve].

Q: For `COc1cccc(NC(=O)c2oc3ccccc3c2NC(=O)C(C)(C)C)c1`, which AC50 [1] is on record?
A: The AC50 was 10 µM [falling, partial curve].

Q: Which AC50 [1] does the source give for `CC(=O)Oc1ccc(Oc2ccc(-c3noc(C)n3)cc2)cc1` here?
A: The AC50 was 15.8 µM [falling, partial curve].

Q: With `CCc1ccccc1N(CC)C(=O)c1cc2c(s1)-c1ccccc1OC2` as the compound, how does the AC50 [1] read?
A: Its AC50 is 31.6 µM [falling, partial curve, poor fit].

Q: Which AC50 [1] does the source give for `Cc1ccccc1CSc1nc2nc(C)c(Cc3ccccc3)c(C)n2n1` here?
A: The AC50 was 39.8 µM [falling, single point].

Q: With `Cc1nc(-c2ccccc2)sc1-c1ccc(SCC(=O)Nc2ccc(F)cc2F)nn1` as the compound, how does the AC50 [1] read?
A: Its AC50 is 1 µM [falling, full curve].

Q: Which AC50 [1] does the source give for `CC(=O)c1cc2c(cc1NC(=O)Nc1cccc(Cl)c1)OCCO2` here?
A: Its AC50 is 0.01 µM [rising, full curve, poor fit].

Q: Which AC50 [1] does the source give for `Cc1ccc(CCNS(=O)(=O)c2cc(-c3cc(C)no3)ccc2C)cc1` here?
A: The AC50 was 31.6 µM [falling, single point].

Q: For `CCCN(C(=O)c1cc2c(=O)oc3ccccc3c2s1)c1ccc(CC)cc1`, which AC50 [1] is on record?
A: Its AC50 is 0.0158 µM [falling, full curve, poor fit].

Q: For `CCc1ccc(OCC(=O)NC(Cc2c[nH]c3ccccc23)C(=O)O)cc1` (configuration not stated), which AC50 [1] is on record?
A: The AC50 was 25.1 µM [falling, single point].

Q: With `Cc1ccccc1Nc1cc(C(=O)NCCCN2CCN(c3cccc(Cl)c3)CC2)c2ccccc2n1` as the compound, how does the AC50 [1] read?
A: Its AC50 is 15.8 µM [falling, partial curve].

Q: With `COc1ccc(Cl)cc1C(=O)Nc1ccccc1N1CCN(C(=O)C(C)C)CC1` as the compound, how does the AC50 [1] read?
A: The AC50 was 25.1 µM [falling, partial curve].

Q: Which AC50 [1] does the source give for `CCOc1ccc(CCNC(=O)C2CCN(C(=O)N3CC(CC)Oc4ccccc43)CC2)cc1` (configuration not stated) here?
A: The AC50 was 15.8 µM [falling, partial curve].

Q: For `CCCCN(CC)CCCNC(=O)CS(=O)(=O)Cc1nc(-c2ccc(C)cc2)oc1C`, which AC50 [1] is on record?
A: The AC50 was 15.8 µM [falling, single point].

Q: Which AC50 [1] does the source give for `CCOC(=O)c1c(C)[nH]c(C(=O)CN2C(=O)NC(C)(c3ccc(C)cc3)C2=O)c1C` (configuration not stated) here?
A: The AC50 was 25.1 µM [falling, partial curve].

Q: For `COc1ccc(NC(c2nnc(-c3ccccc3)o2)c2ccccc2F)cc1Cl` (configuration not stated), which AC50 [1] is on record?
A: Its AC50 is 15.8 µM [falling, partial curve].

Q: For `COc1cc(NC(=O)CSc2nnc(C)n3c2cc2oc(C)cc23)cc(OC)c1`, which AC50 [1] is on record?
A: Its AC50 is 7.94 µM [falling, single point].

Q: For `Cn1nnc2c(N3CCN(c4cccc(Cl)c4)CC3)ncnc21`, which AC50 [1] is on record?
A: The AC50 was 3.16 µM [rising, partial curve].

Q: With `CN(C)CCN1C(=O)c2oc3ccc(Cl)cc3c(=O)c2C1c1cccc(Br)c1` (configuration not stated) as the compound, how does the AC50 [1] read?
A: Its AC50 is 2 µM [falling, full curve, poor fit].

Q: With `COCCCNC(=O)c1c(NC(=O)Cc2coc3c(C)c(C)ccc23)sc2c1CCCC2` as the compound, how does the AC50 [1] read?
A: The AC50 was 10 µM [falling, partial curve].

Q: With `CCCCOC(=O)c1c(N)n(-c2ccc(OC)cc2OC)c2nc3ccccc3nc12` as the compound, how does the AC50 [1] read?
A: The AC50 was 31.6 µM [falling, single point].

Q: With `Cc1ccc(Sc2c(C)nn(-c3ccccc3)c2OC(=O)C(C)(C)C)cc1` as the compound, how does the AC50 [1] read?
A: Its AC50 is 15.8 µM [falling, single point].

Q: For `COc1ccc(OC)c(NS(=O)(=O)c2cc3c(cc2Cl)N(C(C)=O)CCO3)c1`, which AC50 [1] is on record?
A: Its AC50 is 0.794 µM [falling, full curve].

Q: Which AC50 [1] does the source give for `CCOc1ccc(NC(=O)CC2C(=O)N(c3ccc(F)cc3)C(=O)N2Cc2ccc(OC)c(OC)c2)cc1` (configuration not stated) here?
A: Its AC50 is 2.51 µM [falling, partial curve].

Q: For `Cc1ccc(-c2cc(C(=O)Nc3cc([N+](=O)[O-])ccc3C)no2)cc1F`, which AC50 [1] is on record?
A: The AC50 was 12.6 µM [falling, partial curve].

Q: For `Cc1ccc(C)c2sc(NC(=O)c3ccc(S(=O)(=O)N4CCC(C)CC4)cc3)nc12`, which AC50 [1] is on record?
A: Its AC50 is 1 µM [falling, partial curve].

Q: Which AC50 [1] does the source give for `O=C(CSc1nc2cc(C(=O)NC3CCCC3)ccc2c(=O)n1CC1CCCO1)c1cccc(Cl)c1` (configuration not stated) here?
A: The AC50 was 10 µM [rising, partial curve] [measured here: IkB-luc green channel].

Q: Which AC50 [1] does the source give for `COc1ccc(CCNc2oc(/C=C/c3cc(OC)c(OC)c(OC)c3)nc2C#N)cc1OC` here?
A: The AC50 was 31.6 µM [falling, single point].

Q: Which AC50 [1] does the source give for `COc1ccc(OC)c(CCNC(=O)CS(=O)(=O)Cc2nc(-c3cccc(Cl)c3)oc2C)c1` here?
A: Its AC50 is 20 µM [falling, single point].

Q: With `CN(C)c1ccc(CN(Cc2ccco2)C(=O)c2ccc(C(C)(C)C)cc2)cc1` as the compound, how does the AC50 [1] read?
A: Its AC50 is 39.8 µM [falling, single point].

Q: Which AC50 [1] does the source give for `COc1cc(OC)c(Nc2nc3ccccc3c3nncn23)cc1Cl` here?
A: Its AC50 is 0.0158 µM [rising, full curve, poor fit].

Q: With `Cc1oc(-c2cccc(Cl)c2)nc1CSc1nncn2c1cc1occc12` as the compound, how does the AC50 [1] read?
A: Its AC50 is 31.6 µM [falling, partial curve].

Q: For `Cc1c(Cl)ccc2sc(N3CCN(C(=O)C(C)C)CC3)nc12`, which AC50 [1] is on record?
A: Its AC50 is 3.16 µM [rising, single point].

Q: Which AC50 [1] does the source give for `CCOC(=O)c1c(NC(=O)c2cc(C(C)C)on2)sc(C(C)=O)c1C` here?
A: The AC50 was 0.398 µM [rising, full curve].

Q: With `CCOC(=O)c1c(C)oc2nc(C)nc(Nc3ccc(C)c(Cl)c3)c12` as the compound, how does the AC50 [1] read?
A: Its AC50 is 0.501 µM [rising, full curve].

Q: With `CN1Cc2cc(C(=O)c3cc(Cl)cc(CSc4ncccn4)c3O)cnc2NC1=O` as the compound, how does the AC50 (measured here: IkB-luc green channel) read?
A: Its AC50 is 0.794 µM [rising, full curve].

Q: What about the AC50 (measured here: control luc red channel) of the same compound?
A: Its AC50 is 0.316 µM [rising, full curve].

Q: Which AC50 [1] does the source give for `COc1cccc(-n2c(=O)c3c(C)c(C)sc3n(CC(=O)NCCc3ccc(OC)c(OC)c3)c2=O)c1` here?
A: Its AC50 is 0.0126 µM [rising, partial curve, poor fit].

Q: For `Cc1ccc(Cn2c(C(=O)O)c(CNCc3ccc(OC(C)C)cc3)c3ccc(C)cc32)cc1`, which AC50 [1] is on record?
A: Its AC50 is 25.1 µM [falling, partial curve].

Q: For `COc1ccc(OC)c(NC(=O)CSc2ccc(-c3cccs3)nn2)c1`, which AC50 [1] is on record?
A: Its AC50 is 3.16 µM [rising, partial curve, poor fit].

Q: With `COc1cccc(OCc2nc3ccccc3n2CCOc2ccc(C)cc2)c1` as the compound, how does the AC50 [1] read?
A: Its AC50 is 20 µM [falling, partial curve].

Q: For `Cn1c(=O)oc2cc(S(=O)(=O)NC(Cc3ccccc3)C(=O)Nc3ccc(F)cc3)ccc21` (configuration not stated), which AC50 [1] is on record?
A: Its AC50 is 12.6 µM [falling, partial curve].

Q: Which AC50 [1] does the source give for `O=C(CSc1ncn(-c2ccccc2)n1)Nc1ccc(Br)cn1` here?
A: The AC50 was 39.8 µM [falling, single point].

Q: Which AC50 [1] does the source give for `CCC(CC)C(=O)OCc1cc(=O)n2nc(C3CC3)sc2n1` here?
A: The AC50 was 5.01 µM [rising, full curve].

Q: With `CC1=C(c2ccc(Cl)cc2)S(=O)(=O)NC1=NCCCN1CCN(c2cc(C)ccc2C)CC1` as the compound, how does the AC50 [1] read?
A: The AC50 was 25.1 µM [falling, single point].

Q: For `O=C(CCCn1c(=O)c2cccn2c2ccccc21)Nc1cc(C(F)(F)F)ccc1Cl`, which AC50 [1] is on record?
A: The AC50 was 0.1 µM [rising, full curve].

Q: Which AC50 [1] does the source give for `CC1C(=O)Nc2ccc(S(=O)(=O)N3CCCCC3)cc2NC1=O` (configuration not stated) here?
A: The AC50 was 39.8 µM [falling, single point].

Q: For `CCOC(=O)c1cc(-c2ccc(OC)cc2)n(CCC(=O)Nc2ccccc2OC)c1C`, which AC50 [1] is on record?
A: The AC50 was 39.8 µM [falling, partial curve].
